The other results are listed elsewhere or left out.
Tests used:
Experiment in all cases: glycan array binding signal (z-score within array); higher = stronger binding
Details in all cases: glycan notation: IUPAC condensed, linker removed
[1] = molecular target: Neu5Ac(a2-3)Gal(b1-3)GlcNAc(b1-6)GalNAc
Procedure, shortened: (§1)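 Glycan array data were curated from 3228 arrays in the Consortium for Functional Glycomics database and kept only where the protein sequence was available. Glycan names were converted to IUPAC-condensed notation, and columns mapping to the same glycan were averaged. The binding signal is a within-array Z-score, averaged across arrays of the same protein sequence at different concentrations or buffers and across linkers. Negative Z-scores can be read as non-binding.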

[2] = molecular target: Neu5Ac(a2-3)Gal(b1-3)GlcNAc6S
Procedure, shortened: as §1

[3] = molecular target: Neu5Ac(a2-3)Gal(b1-3)[Fuc(a1-4)]GlcNAc
Procedure, shortened: as §1

[4] = molecular target: Neu5Ac(a2-3)Gal(b1-3)[Fuc(a1-4)]GlcNAc(b1-3)Gal(b1-3)[Fuc(a1-4)]GlcNAc
Procedure, shortened: as §1

[5] = molecular target: Neu5Ac(a2-3)Gal(b1-3)[Fuc(a1-4)]GlcNAc(b1-3)Gal(b1-4)[Fuc(a1-3)]GlcNAc
Procedure, shortened: as §1

[6] = molecular target: Neu5Ac(a2-3)Gal(b1-3)[GlcNAc(b1-6)]GalNAc
Procedure, shortened: as §1

[7] = molecular target: Neu5Ac(a2-3)Gal(b1-3)[Neu5Ac(a2-6)]GalNAc
Procedure, shortened: as §1

[8] = molecular target: Neu5Ac(a2-3)Gal(b1-3)[Neu5Ac(a2-6)]GlcNAc(b1-3)[Fuc(a1-3)[Gal(b1-4)]GlcNAc(b1-6)]Gal(b1-4)Glc
Procedure, shortened: as §1

[9] = molecular target: Neu5Ac(a2-3)Gal(b1-3)]Neu5Ac(a2-3)Gal(b1-4)]GlcNAc
Procedure, shortened: as §1

Neu5Ac(a2-3)Gal(b1-4)Glc = molecular target: Neu5Ac(a2-3)Gal(b1-4)Glc
Procedure, shortened: as §1

[10] = molecular target: Neu5Ac(a2-3)Gal(b1-4)GlcNAc
Procedure, shortened: as §1

[11] = molecular target: Neu5Ac(a2-3)Gal(b1-4)GlcNAc(b1-2)Man
Procedure, shortened: as §1

[12] = molecular target: Neu5Ac(a2-3)Gal(b1-4)GlcNAc(b1-2)Man(a1-3)[GlcNAc(b1-4)][Neu5Ac(a2-3)Gal(b1-4)GlcNAc(b1-2)Man(a1-6)]Man(b1-4)GlcNAc(b1-4)GlcNAc
Procedure, shortened: as §1

[13] = molecular target: Neu5Ac(a2-3)Gal(b1-4)GlcNAc(b1-2)Man(a1-3)[Neu5Ac(a2-3)Gal(b1-4)GlcNAc(b1-2)Man(a1-6)]Man(b1-4)GlcNAc(b1-4)GlcNAc
Procedure, shortened: as §1

[14] = molecular target: Neu5Ac(a2-3)Gal(b1-4)GlcNAc(b1-2)Man(a1-3)[Neu5Ac(a2-3)Gal(b1-4)GlcNAc(b1-2)Man(a1-6)]Man(b1-4)GlcNAc(b1-4)[Fuc(a1-6)]GlcNAc
Procedure, shortened: as §1

[15] = molecular target: Neu5Ac(a2-3)Gal(b1-4)GlcNAc(b1-2)Man(a1-3)[Neu5Ac(a2-6)Gal(b1-4)GlcNAc(b1-2)Man(a1-6)]Man(b1-4)GlcNAc(b1-4)GlcNAc
Procedure, shortened: as §1

[16] = molecular target: Neu5Ac(a2-3)Gal(b1-4)GlcNAc(b1-2)[Neu5Ac(a2-3)Gal(b1-4)GlcNAc(b1-4)]Man(a1-3)[GlcNAc(b1-4)][Neu5Ac(a2-3)Gal(b1-4)GlcNAc(b1-2)[Neu5Ac(a2-3)Gal(b1-4)GlcNAc(b1-6)]Man(a1-6)]Man(b1-4)GlcNAc(b1-4)GlcNAc
Procedure, shortened: as §1

[17] = molecular target: Neu5Ac(a2-3)Gal(b1-4)GlcNAc(b1-2)[Neu5Ac(a2-3)Gal(b1-4)GlcNAc(b1-4)]Man(a1-3)[GlcNAc(b1-4)][Neu5Ac(a2-3)Gal(b1-4)GlcNAc(b1-4)Man(a1-6)]Man(b1-4)GlcNAc(b1-4)GlcNAc
Procedure, shortened: as §1

[18] = molecular target: Neu5Ac(a2-3)Gal(b1-4)GlcNAc(b1-2)[Neu5Ac(a2-3)Gal(b1-4)GlcNAc(b1-6)]Man(a1-6)[Neu5Ac(a2-3)Gal(b1-4)GlcNAc(b1-2)Man(a1-3)][GlcNAc(b1-4)]Man(b1-4)GlcNAc(b1-4)GlcNAc
Procedure, shortened: as §1

[19] = molecular target: Neu5Ac(a2-3)Gal(b1-4)GlcNAc(b1-3)Gal
Procedure, shortened: as §1

[20] = molecular target: Neu5Ac(a2-3)Gal(b1-4)GlcNAc(b1-3)Gal(b1-3)GlcNAc
Procedure, shortened: as §1

[21] = molecular target: Neu5Ac(a2-3)Gal(b1-4)GlcNAc(b1-3)Gal(b1-4)GlcNAc
Procedure, shortened: as §1

[22] = molecular target: Neu5Ac(a2-3)Gal(b1-4)GlcNAc(b1-3)Gal(b1-4)GlcNAc(b1-2)Man(a1-3)[Neu5Ac(a2-3)Gal(b1-4)GlcNAc(b1-3)Gal(b1-4)GlcNAc(b1-2)Man(a1-6)]Man(b1-4)GlcNAc(b1-4)GlcNAc
Procedure, shortened: as §1

[23] = molecular target: Neu5Ac(a2-3)Gal(b1-4)GlcNAc(b1-3)Gal(b1-4)GlcNAc(b1-3)Gal(b1-4)GlcNAc
Procedure, shortened: as §1

[24] = molecular target: Neu5Ac(a2-3)Gal(b1-4)GlcNAc(b1-3)Gal(b1-4)GlcNAc(b1-3)Gal(b1-4)GlcNAc(b1-2)Man(a1-3)[Neu5Ac(a2-3)Gal(b1-4)GlcNAc(b1-3)Gal(b1-4)GlcNAc(b1-3)Gal(b1-4)GlcNAc(b1-2)Man(a1-6)]GalNAc
Procedure, shortened: as §1

[25] = molecular target: Neu5Ac(a2-3)Gal(b1-4)GlcNAc(b1-3)Gal(b1-4)GlcNAc(b1-3)GalNAc
Procedure, shortened: as §1

[26] = molecular target: Neu5Ac(a2-3)Gal(b1-4)GlcNAc(b1-3)Gal(b1-4)GlcNAc(b1-3)[Neu5Ac(a2-3)Gal(b1-4)GlcNAc(b1-3)Gal(b1-4)GlcNAc(b1-6)]GalNAc
Procedure, shortened: as §1

[27] = molecular target: Neu5Ac(a2-3)Gal(b1-4)GlcNAc(b1-3)Gal(b1-4)GlcNAc(b1-6)[Gal(b1-3)]GalNAc
Procedure, shortened: as §1

[28] = molecular target: Neu5Ac(a2-3)Gal(b1-4)GlcNAc(b1-3)Gal(b1-4)[Fuc(a1-3)]GlcNAc
Procedure, shortened: as §1

[29] = molecular target: Neu5Ac(a2-3)Gal(b1-4)GlcNAc(b1-3)GalNAc
Procedure, shortened: as §1

B1: Epa11 (Candida glabrata) (protein)
chain: MGSSHHHHHHSSGLVPRGSHMASSNAPNYPVGCSPSVGTQLTPGLSLEVYAYPMDGNNGYCWNATYKDPEFPRSGYLKNKLLGKADGVVGPLNFLAKNKDCSPKVDTLPAGFNFPQPITVTNFTMVLFGYLAPKQSGKYTFKLLADDLLLLNLGATNAFDCCNREATKNNLGEFLAYNLWPNQDKNVTVYLEKGVYYPLRLFFNNRDGGSQLDFSYYFNDSPAPLTDFSGMFFSVPDGAECPARI
glycan array binding signal (z-score) [1]: 0.52 | glycan array binding signal (z-score) [2]: 0.733 | glycan array binding signal (z-score) [3]: -0.534 | glycan array binding signal (z-score) [4]: -0.051 | glycan array binding signal (z-score) [5]: 0.483 | glycan array binding signal (z-score) [6]: 0.812 | glycan array binding signal (z-score) [7]: -0.174 | glycan array binding signal (z-score) [8]: 0.375 | glycan array binding signal (z-score) [9]: -0.098 | glycan array binding signal (z-score) (Neu5Ac(a2-3)Gal(b1-4)Glc): 0.127 | glycan array binding signal (z-score) [10]: -0.412 | glycan array binding signal (z-score) [11]: 1.13 | glycan array binding signal (z-score) [12]: 0.229 | glycan array binding signal (z-score) [13]: -0.133 | glycan array binding signal (z-score) [14]: -0.195 | glycan array binding signal (z-score) [15]: -0.573 | glycan array binding signal (z-score) [16]: 0.584 | glycan array binding signal (z-score) [17]: -0.495 | glycan array binding signal (z-score) [18]: -1.24 | glycan array binding signal (z-score) [19]: -0.477 | glycan array binding signal (z-score) [20]: -0.745 | glycan array binding signal (z-score) [21]: 0.335 | glycan array binding signal (z-score) [22]: 0.416 | glycan array binding signal (z-score) [23]: -0.226 | glycan array binding signal (z-score) [24]: 1.3 | glycan array binding signal (z-score) [25]: 0.068 | glycan array binding signal (z-score) [26]: 0.099 | glycan array binding signal (z-score) [27]: -0.079 | glycan array binding signal (z-score) [28]: -0.296 | glycan array binding signal (z-score) [29]: 0.796
